In article PMC6802197:
For at least one entry, the source does not settle the construct or the ends of the probe. At least one verdict was read from the data and is not stated in words by the source.

Tests used:
[1] = molecular target: PFV integrase (intasome tetramer), WT (Prototype foamy virus) (UniProt P14350); experiment: native gel electrophoresis; details: Atto532-labeled intasome reacted with supercoiled pBR322; Intasome 10 nM (bulk gel kinetics 25 nM), 37 C for AFM; Mg2+ reaction buffer (apparently 125 mM NaOAc, 5 mM Mg(OAc)2, 25 mM Tris-HCl pH 7.4); recombinant protein; protein details: His tag removed with HRV3C protease; label: 5'-Atto532 on S1
[2] = molecular target: PFV integrase (intasome tetramer), WT (Prototype foamy virus) (UniProt P14350); experiment: size-exclusion chromatography (intasome assembly); details: Zn2+; Intasome 10 nM (bulk gel kinetics 25 nM), 37 C for AFM; Mg2+ reaction buffer (apparently 125 mM NaOAc, 5 mM Mg(OAc)2, 25 mM Tris-HCl pH 7.4); recombinant protein; protein details: His tag removed with HRV3C protease

Sequence | binding result [1] | binding result [2]
TGCGAAATTCCATGACA / ATTGTCATGGAATTTCGCA [Atto532 viral DNA end mimetic] | binds | 
TGCGAAATTCCATGACA / ATTGTCATGGAATTTCGCA [3'-processed viral DNA end mimetic] |  | binds
